# Source: US6130036A, “Methods and compositions for screening for anti-AIDS drugs” (priority 1998, dated 2000)
# At least one structure is not confirmed: it was looked up by name or label, or the drawing left a doubt.
# Experiments:
# [1] = tested on: HIV RT and HSV TK; assay: Survival of Pol Its cells co-expressing HIV RT and HSV TK (pRT-TK) on drug plates; assay type: cell-based, human immunodeficiency virus
# [2] = molecular target: T1, HIV RT (HIV-1 M:B_HXB2R, UniProt P04585); assay type: cell-based, human immunodeficiency virus; settings: pHIV RT-2, ddC on NA plates, 48 hrs, FIG. 5A
# T1 construct: pHSG576 plasmids (pHIV RT-1/-2) in E. coli polA12recA718; pHIV RT-3 fused to 94 N-terminal residues of DNA polymerase beta; pRT-TK co-expresses HSV TK
# [3] = molecular target: herpes thymidine kinase (Human alphaherpesvirus 1 strain CL101, UniProt P06478); assay: Control experiment: phosphorylation by herpes thymidine kinase; assay type: biochemical, Herpes Simplex Virus
# [4] = tested on: rat DNA polymerase β; assay: Control: growth of polA12recA718 expressing rat DNA polymerase β on AZT nutrient agar; assay type: cell-based
# [5] = tested on: E. coli polA+recA+; assay: Control: growth of wild-type E. coli polA+recA+ with pHSG576 on AZT nutrient agar; assay type: cell-based; settings: 85 nM AZT, 37° C. and also 30° C.
Structure (SMILES),"sensitivity of E. coli coexpressing herpes thymidine kinase and HIV RT ([1]; ddC on NA plates, 48 hrs, FIG. 5B)",survival of E. coli harboring a plasmid that expresses solely HIV RT in place of Pol I [2],phosphorylation by herpes thymidine kinase [3],"sensitivity of cells with dual plasmid (HIV RT and HSV TK) ([1]; AZT on NA plates, FIG. 5D)","growth (percent survival of colonies) of Pol Its expressing rat DNA polymerase β ([4]; AZT 0-250 nM, 48 hr, FIG. 4A)","AZT sensitivity of Pol I defect complemented by DNA polymerase β ([4]; AZT nutrient agar, 37° C.)",colony formation of wild type strain on nutrient agar containing AZT [5]
Nc1ccn([C@H]2CC[C@@H](CO)O2)c(=O)n1 [dideoxycytidine],sensitive,not effected,phosphorylates dideoxycytidine,–,–,–,–
"Cc1cn([C@H]2C[C@H](N=[N+]=[N-])[C@@H](CO)O2)c(=O)[nH]c1=O [AZT, azidothymidine]",–,–,–,equally sensitive,able to grow even in high concentrations of AZT,does not render it sensitive,forms large smooth colonies
